Measured data: PubChem BioAssay AID504774 (Drosophila RNAi Screening Center, 2011)
The deposit covers about 23,000 reagents; shown is an unselected part of those with a known target gene and a result. 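Values are quantile-normalised luminescence on an arbitrary scale; higher means more cells surviving MMS.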 Further read-outs or replicates are left out here.

- Aim: 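Genes required for cells to withstand methyl methanesulphonate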 (primary screen)
- Cells: Drosophila Kc167 cells
- Reagents: long dsRNA against Drosophila genes, about 0.25 µg dsRNA per well
- Timing: about 6 days: 3 days knock-down, then 3 days with or without MMS
- Challenge: methyl methanesulphonate 0.004% (w/v) for 3 days after knock-down
- Read-out: 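Viability in wells given MMS, read as ATP luminescence, normalised by quantiles plate by plate and averaged across replicates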
- Scale: mean viability with MMS and viability with MMS: higher = more surviving cells after MMS

With robl37BC [DRSC02472], how do the results read?
mean viability with MMS: 3.56e6; viability with MMS, replicate 1: 3.96e6

What is on record for SPE (Spatzle-Processing Enzyme) [DRSC15135]?
mean viability with MMS: 3.55e6; viability with MMS, replicate 1: 4.07e6

With Cpr92F (Cuticular protein 92F) [DRSC15819], how do the results read?
mean viability with MMS: 3.63e6; viability with MMS, replicate 1: 4.13e6

With CG2975 [DRSC00556], what does the deposit list?
mean viability with MMS: 3.41e6; viability with MMS, replicate 1: 3.73e6

How did the screen score hoka [DRSC08313]?
mean viability with MMS: 3.55e6; viability with MMS, replicate 1: 4.20e6

With Pax (Paxillin) [DRSC01703], what was measured?
mean viability with MMS: 3.59e6; viability with MMS, replicate 1: 4.02e6

With Pax (Paxillin) [DRSC02651], what was measured?
mean viability with MMS: 3.63e6; viability with MMS, replicate 1: 4.12e6

For Pax (Paxillin) [DRSC02652], what was measured?
mean viability with MMS: 3.58e6; viability with MMS, replicate 1: 4.07e6

How did the screen score CG33178 [DRSC19950]?
mean viability with MMS: 3.52e6; viability with MMS, replicate 1: 3.93e6

Which result is listed for Aplip1 (APPL-interacting protein 1) [DRSC07947]?
mean viability with MMS: 3.61e6; viability with MMS, replicate 1: 4.09e6

With Aplip1 (APPL-interacting protein 1) [DRSC08697], what does the deposit list?
mean viability with MMS: 3.57e6; viability with MMS, replicate 1: 4.05e6

How did the screen score Aplip1 (APPL-interacting protein 1) [DRSC21587]?
mean viability with MMS: 3.66e6; viability with MMS, replicate 1: 4.12e6

For CG3216 [DRSC04347], what was measured?
mean viability with MMS: 3.43e6; viability with MMS, replicate 1: 3.97e6

What did the screen give for Ugt50B3 (UDP-glycosyltransferase family 50 member B3) [DRSC04778]?
mean viability with MMS: 3.62e6; viability with MMS, replicate 1: 4.07e6

How did the screen score Ugt50B3 (UDP-glycosyltransferase family 50 member B3) [DRSC04779]?
mean viability with MMS: 3.65e6; viability with MMS, replicate 1: 4.11e6

How did the screen score Ugt50B3 (UDP-glycosyltransferase family 50 member B3) [DRSC21419]?
mean viability with MMS: 3.48e6; viability with MMS, replicate 1: 3.98e6

With Obp56c (Odorant-binding protein 56c) [DRSC06552], what was measured?
mean viability with MMS: 3.67e6; viability with MMS, replicate 1: 3.81e6

What did the screen give for Obp56c (Odorant-binding protein 56c) [DRSC22325]?
mean viability with MMS: 3.52e6; viability with MMS, replicate 1: 4.00e6

With CG9107 [DRSC03138], what does the deposit list?
mean viability with MMS: 3.43e6; viability with MMS, replicate 1: 3.77e6

What is on record for cni (cornichon) [DRSC03512]?
mean viability with MMS: 3.34e6; viability with MMS, replicate 1: 3.81e6

For CG32241 [DRSC08100], what does the deposit list?
mean viability with MMS: 3.60e6; viability with MMS, replicate 1: 4.07e6

What is on record for CG32241 [DRSC21518]?
mean viability with MMS: 3.58e6; viability with MMS, replicate 1: 4.06e6

What did the screen give for mthl14 (methuselah-like 14) [DRSC07865]?
mean viability with MMS: 3.55e6; viability with MMS, replicate 1: 4.17e6

What did the screen give for NPF (neuropeptide F) [DRSC17019]?
mean viability with MMS: 3.54e6; viability with MMS, replicate 1: 4.09e6

In a second layout: entries from further up
Gene	dsRNA	mean viability with MMS	viability with MMS, replicate 1
Aplip1 (APPL-interacting protein 1)	DRSC07947	3.61e6	4.09e6
Aplip1 (APPL-interacting protein 1)	DRSC08697	3.57e6	4.05e6
Aplip1 (APPL-interacting protein 1)	DRSC21587	3.66e6	4.12e6
